{
  "sequences": {"note": "Chains of the proteins cited; added tags and fusions are not shown. Lines headed by an entry give the natural chain unless they say otherwise; changes in a name come on top.", "UniProt Q12851": "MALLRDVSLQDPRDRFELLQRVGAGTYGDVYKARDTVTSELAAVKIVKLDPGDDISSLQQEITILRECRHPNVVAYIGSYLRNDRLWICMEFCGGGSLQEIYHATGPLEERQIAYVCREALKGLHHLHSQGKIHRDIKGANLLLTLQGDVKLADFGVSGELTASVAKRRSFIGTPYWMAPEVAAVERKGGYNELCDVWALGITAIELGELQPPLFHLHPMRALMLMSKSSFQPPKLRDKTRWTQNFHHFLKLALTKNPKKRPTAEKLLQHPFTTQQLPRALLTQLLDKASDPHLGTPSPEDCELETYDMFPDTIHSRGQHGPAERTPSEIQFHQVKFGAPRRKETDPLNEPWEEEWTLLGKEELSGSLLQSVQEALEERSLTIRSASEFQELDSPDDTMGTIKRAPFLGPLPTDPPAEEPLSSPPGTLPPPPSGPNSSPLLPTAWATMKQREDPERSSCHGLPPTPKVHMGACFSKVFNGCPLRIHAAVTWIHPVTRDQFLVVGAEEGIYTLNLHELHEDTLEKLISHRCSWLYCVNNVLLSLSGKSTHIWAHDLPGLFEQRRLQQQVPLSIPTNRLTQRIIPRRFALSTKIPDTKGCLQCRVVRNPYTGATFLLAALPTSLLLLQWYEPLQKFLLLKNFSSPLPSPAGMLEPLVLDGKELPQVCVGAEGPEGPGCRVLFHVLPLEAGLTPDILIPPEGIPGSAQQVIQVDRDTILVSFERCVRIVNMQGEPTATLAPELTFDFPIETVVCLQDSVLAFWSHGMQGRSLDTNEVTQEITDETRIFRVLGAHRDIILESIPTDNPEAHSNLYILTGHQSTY"},
  "source": "the supplement of paper PMC12823440",
  "about": "“Inhibitors supercharge kinase turnover through native proteolytic circuits” (Nature, 2025)",
  "note": "Counter-ions that a name gives are not always drawn. This is one part of the list. Hit calls seldom repeat between salt and free forms of one compound.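 Kinases, fused to nanoluciferase, were expressed in K562 cells; luminescence was measured every 4 h from 2 to 18 h as percent of control (DMSO = 100%, positive control = 0%). A time point is decreased if signal falls significantly (2 sigma). Hits were called by the authors by a rule that is not shown; the count of time points alone does not decide it.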",
  "data": [
    {"target": "MAP4K2 (UniProt Q12851)", "test": "number of time points (of 5) at which kinase-Nluc abundance scored as decreased, DMSO-normalised (count); higher = more persistent destabilization", "conditions": "K562; 2-18 h", "values": [
      {"smiles": "FC(F)(c1ccc2ncccc2c1)c1nnc2ccc(-c3ccncc3)nn12", "note": "(10 µM)", "number of time points": 0},
      {"smiles": "COc1ccc(-c2ccc3c(N4CCOCC4)nc(N4C[C@@H](C)O[C@@H](C)C4)nc3n2)cc1CO", "note": "(2.5 µM)", "number of time points": 0},
      {"smiles": "C=CC(=O)Nc1ccc(CN2C(=O)N(c3cc(OC)cc(OC)c3)Cc3cnc(Nc4ccc(N5CCN(C)CC5)cc4)nc32)cc1", "note": "(2.5 µM)", "number of time points": 0},
      {"smiles": "O=C1NC(=O)/C(=C\\c2cccc(C(F)(F)F)c2)S1", "note": "(2.5 µM)", "number of time points": 0},
      {"smiles": "CN(C)C(=O)Cn1cc(-c2ccc(-c3cncc4ccccc34)cc2)cn1", "note": "(10 µM)", "number of time points": 0},
      {"smiles": "COc1ccccc1-c1cc(Nc2cccc(CS(N)(=O)=O)c2)ncn1", "note": "(10 µM)", "number of time points": 0},
      {"smiles": "C[C@@H]1COCCN1c1cc(C2([S@@](C)(=N)=O)CC2)nc(-c2ccnc3[nH]ccc23)n1", "note": "[(S)-Ceralasertib] (10 µM)", "number of time points": 0},
      {"smiles": "c1cc(-c2c[nH]c3nccc(N4CCC[C@@]5(CCCCN5)C4)c23)ncn1", "note": "(10 µM)", "number of time points": 0},
      {"smiles": "Cc1ccc2nc(NCCN)c3ncc(C)n3c2c1", "note": "(2.5 µM)", "number of time points": 0},
      {"smiles": "C=CC(=O)Nc1cccc(Nc2nc(Nc3ccc(NC4CN(CCF)C4)cc3OC)ncc2C(F)(F)F)c1", "note": "(2.5 µM)", "number of time points": 0},
      {"smiles": "COc1ncc(Cl)cc1S(=O)(=O)Nc1ccc(F)c(C#Cc2cnc(N)nc2)c1F", "note": "(2.5 µM)", "number of time points": 0},
      {"smiles": "C=CC(=O)Nc1cccc(Nc2nc(Nc3ccc(N4CCN(C(C)=O)CC4)cc3OC)ncc2C(F)(F)F)c1", "note": "[Rociletinib hydrobromide] (10 µM)", "number of time points": 0},
      {"smiles": "C[C@@]1(c2ncncc2F)NC(=O)c2cc(-c3cn[nH]c3)ccc21", "note": "(10 µM)", "number of time points": 0},
      {"smiles": "Cc1[nH]c(/C=C2\\C(=O)Nc3ccc(F)cc32)c(C)c1C(=O)N[C@H]1CCN(C(=O)N(C)C)C1", "note": "[Vorolanib] (10 µM)", "number of time points": 0},
      {"smiles": "NC(=O)c1ccc(-c2nc(-c3ccc4c(c3)OCCO4)c(-c3ccccn3)[nH]2)cc1", "note": "(10 µM)", "number of time points": 0},
      {"smiles": "Cc1ccc2cc(-c3c(C)ccc(C(=O)c4c(-c5ccccc5)n(C)n(-c5ccccc5)c4=O)c3N)ccc2n1", "note": "(2.5 µM)", "number of time points": 0},
      {"smiles": "OCCn1cc(-c2ccc3c(c2)CC/C3=N\\O)c(-c2ccncc2)n1", "note": "(10 µM)", "number of time points": 0},
      {"smiles": "NCCNS(=O)(=O)c1cccc2c(Cl)cccc12", "note": "[A-3 (hydrochloride)] (10 µM)", "number of time points": 0},
      {"smiles": "COc1cccc(OC)c1C(=O)OCc1cc(O)ccc1O[C@@H]1O[C@H](CO)[C@@H](O)[C@H](O)[C@H]1O", "note": "[Curculigoside] (10 µM)", "number of time points": 0},
      {"smiles": "CC#CC(=O)N1CC[C@@H](n2c(=O)n(-c3ccc(Oc4ccccc4)cc3)c3c(N)ncnc32)C1", "note": "[Tirabrutinib] (10 µM)", "number of time points": 0},
      {"smiles": "CC1=C(C(=O)O)N2C(=O)[C@@H](NC(=O)[C@H](N)C3=CCC=CC3)[C@H]2SC1", "note": "[Cephradine] (10 µM)", "number of time points": 0},
      {"smiles": "CC(C)(C)c1nc(-c2cccc(NS(=O)(=O)c3c(F)cccc3F)c2F)c(-c2ccnc(N)n2)s1", "note": "[Dabrafenib] (2.5 µM)", "number of time points": 0},
      {"smiles": "COc1cc2c(N3CCN(C(=O)Nc4ccc(OC(C)C)cc4)CC3)ncnc2cc1OCCCN1CCCCC1", "note": "[Tandutinib] (10 µM)", "number of time points": 0},
      {"smiles": "Nc1cc(C(F)(F)F)c(-c2cc(N3CCOCC3)nc(N3CCOCC3)n2)cn1", "note": "[Buparlisib (Hydrochloride)] (2.5 µM)", "number of time points": 0},
      {"smiles": "Cn1cc(-c2ccc3c(c2)CCN3C(=O)Cc2cccc(C(F)(F)F)c2)c2c(N)ncnc21", "note": "(2.5 µM)", "number of time points": 0},
      {"smiles": "O=C1NC(=O)/C(=C/c2ccc3nccnc3c2)S1", "note": "(10 µM)", "number of time points": 0},
      {"smiles": "Cn1ncc(Cl)c1-c1cc(C(=O)N[C@H](CN)Cc2ccc(F)c(F)c2)oc1Cl", "note": "[Uprosertib] (10 µM)", "number of time points": 0},
      {"smiles": "COCCNc1nc2ccc(C#CC3(O)CCCCC3)cc2n1-c1ccnc(N)n1", "note": "(10 µM)", "number of time points": 0},
      {"smiles": "CC(=O)NC1CC(n2cnc(NC(=O)Cc3ccc4ccccc4c3)c2)C1", "note": "(configuration not stated) (10 µM)", "number of time points": 0},
      {"smiles": "COc1cc(Nc2ncc(F)c(Nc3ccc4c(n3)NC(=O)C(C)(C)O4)n2)cc(OC)c1OC", "note": "(10 µM)", "number of time points": 0},
      {"smiles": "C=C(CC[C@@H](C(=O)O)[C@H]1[C@H](O)C[C@@]2(C)C3=C(CC[C@]12C)[C@@]1(C)CC[C@H](OC(C)=O)C(C)(C)[C@@H]1CC3)C(C)C", "note": "[Pachymic acid] (10 µM)", "number of time points": 0},
      {"smiles": "O=C(NOCC(O)CO)c1cc(Br)c(F)c(F)c1Nc1ccc(I)cc1F", "note": "(configuration not stated) (2.5 µM)", "number of time points": 0}
    ]}
  ]
}
